Source: ChEMBL document CHEMBL3988442, “University of Dundee, Small-Polar-MMV Screening Library” (2021).

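Phenotypic screen: M. tuberculosis growth, glucose 7H9 medium, 3 days; the read-out is not stated. Tested at 500 µM. Direction is inferred from retests: higher values go with more growth inhibition. About 18,000 compounds were tested under these conditions; 7.9% (about 1,400) showed 50% or more at least once.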

The filed quantity is “Percent Effect” (%).
The record does not define 0% and 100%; most values in the screen are far below 50% and negative numbers occur (in some assays of this library far below -100).
Compounds were drawn at random from those tested, without regard to their results.

* NCc1cccc(CN2CCCC2)c1 : -8.238%
* COC(=O)c1ccccc1NC(=O)N1CC[C@@H](O)C1 : -1.475%
* CCc1nc(C2CCCN2)no1 (stereo not given) : -0.2169%
* CN(C)c1cc(CNC(=O)NC2CC2)ccn1 : 0.8495%
* O=C(C1CCCC1)N1CCC(NC2CCOCC2)C1 (stereo not given) : 4.464%
* N#Cc1c(F)cccc1NC1CCC2(CC1)OCCO2 : 3.927%
* CNc1cc(CN(C)Cc2ccco2)ccn1 : 23.83%
* CCS(=O)(=O)N1CC(C(=O)NC)Oc2ccccc21 (stereo not given) : 0.8739%
* O=C(c1c(F)cccc1F)N1CCCC1 : -1.297%
* CCNC(=O)C(C)Nc1ccc(C)cc1C (stereo not given) : 42.32%
* C[C@@]1(O)CCN(C(=O)CN)C[C@@H]1Cc1ccccc1 : 55.82%
* COc1cccc(N2CCC(N)C2)c1 (stereo not given) : 75.25%
* COCCN1CCCN(C(=O)c2csc(Br)c2)CC1 : 26.01%
* Cc1n[nH]cc1CNC(=O)CSCc1c(C)noc1C : 13.39%
* COCCCN(C)Cc1ccc2c(c1)OCO2 : 32.3%
* CN(C)C1CCCN(C(=O)NCCc2ccco2)C1 (stereo not given) : 14.6%
* NS(=O)(=O)CC1CCCCN1 (stereo not given) : -8.059%
* CNC(=O)CSCc1ccc2ccccc2n1 : -9.011%
* CC(=O)N(C1CC1)C(C)c1ccccn1 (stereo not given) : 1.618%
* CCC(=O)N1CCCc2cc(NS(C)(=O)=O)ccc21 : 7.017%
* CC(C)(C)NC(=O)N1CCC(N)CC1 : -9.783%
* O=C(CCCN1CCCCC1)NCCn1cccc1 : -10.53%
* CN(C)[C@H]1CN(C(=O)Nc2ccccc2F)C[C@@H]1O : 10.12%
* CC(C(=O)Nc1sccc1C(N)=O)N1CCCC1 (stereo not given) : 18.74%
* CCN(CC)CCSC1CCCCNC1=O (stereo not given) : -11.56%
* NS(=O)(=O)C1CCN(C(=O)NCc2ccccc2)CC1 : 11.26%
* CCN1CCCC1CNC(=O)Nc1ccc(OC)cc1 (stereo not given) : 18.54%
* CN1C(=O)C[C@H](CN)[C@H]1c1cnn(C)c1 : 9.961%
* CCCC(=O)N(C)CCC(N)C(C)C (stereo not given) : 1.818%
* CC(=O)NC(C)(C)C(=O)N1C[C@H](C2CC2)[C@@H](N)C1 : 5.791%
* O=C(Cn1cccnc1=O)N1[C@H]2CCNC[C@@H]1CC2 : 27.57%
* CN(C)C1CCN(C(=O)CC#N)CC1 : -14.56%

The last 4 entries again:

{"structure": "CCCC(=O)N(C)CCC(N)C(C)C", "stereo": "stereo not given", "Percent Effect": 1.818}
{"structure": "CC(=O)NC(C)(C)C(=O)N1C[C@H](C2CC2)[C@@H](N)C1", "Percent Effect": 5.791}
{"structure": "O=C(Cn1cccnc1=O)N1[C@H]2CCNC[C@@H]1CC2", "Percent Effect": 27.57}
{"structure": "CN(C)C1CCN(C(=O)CC#N)CC1", "Percent Effect": -14.56}